In the supplement of paper PMC11732987, “Enantioselective OTUD7B fragment discovery through chemoproteomics screening and high-throughput optimisation” (Communications Chemistry, 2025):
The other results are listed elsewhere or left out. The data scatter; read single values as rough.

By UniProt entry, the sequences of proteins in these tests, tags left out. Where a name states a change or a piece, a line headed by the entry shows the natural chain unless it says otherwise. Residues count along the entry.
UniProt Q03001, 7508-7539: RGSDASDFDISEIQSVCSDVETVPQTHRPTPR
UniProt Q9UHF1: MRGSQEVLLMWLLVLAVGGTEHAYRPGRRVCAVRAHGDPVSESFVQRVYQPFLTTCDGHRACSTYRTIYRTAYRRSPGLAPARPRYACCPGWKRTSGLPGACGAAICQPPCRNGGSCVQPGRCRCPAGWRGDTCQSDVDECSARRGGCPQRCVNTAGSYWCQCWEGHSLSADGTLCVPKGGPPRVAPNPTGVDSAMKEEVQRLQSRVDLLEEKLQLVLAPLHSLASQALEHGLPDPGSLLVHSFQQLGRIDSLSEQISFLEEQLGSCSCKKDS
UniProt Q9BQI3, 247-270: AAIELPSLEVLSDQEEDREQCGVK
UniProt Q9UI10, 55-75: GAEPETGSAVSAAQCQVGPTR
UniProt A8K855: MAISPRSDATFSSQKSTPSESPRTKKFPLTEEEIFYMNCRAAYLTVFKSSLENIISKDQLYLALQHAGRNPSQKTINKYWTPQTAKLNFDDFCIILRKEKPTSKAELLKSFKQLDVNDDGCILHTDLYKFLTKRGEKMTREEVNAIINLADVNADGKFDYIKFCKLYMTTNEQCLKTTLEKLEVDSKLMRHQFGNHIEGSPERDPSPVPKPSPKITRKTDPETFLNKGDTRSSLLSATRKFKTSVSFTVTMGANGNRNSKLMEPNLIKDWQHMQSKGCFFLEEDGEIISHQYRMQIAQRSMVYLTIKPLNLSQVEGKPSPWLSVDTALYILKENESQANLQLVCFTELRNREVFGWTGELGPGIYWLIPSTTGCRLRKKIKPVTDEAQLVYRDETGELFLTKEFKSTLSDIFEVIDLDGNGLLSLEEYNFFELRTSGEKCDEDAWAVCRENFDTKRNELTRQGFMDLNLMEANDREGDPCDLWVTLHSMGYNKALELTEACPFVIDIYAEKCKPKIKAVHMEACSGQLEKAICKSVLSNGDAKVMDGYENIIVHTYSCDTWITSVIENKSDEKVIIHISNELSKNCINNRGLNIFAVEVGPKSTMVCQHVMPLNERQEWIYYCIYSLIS
UniProt Q02487, 258-279: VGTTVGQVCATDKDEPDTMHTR
UniProt P60981: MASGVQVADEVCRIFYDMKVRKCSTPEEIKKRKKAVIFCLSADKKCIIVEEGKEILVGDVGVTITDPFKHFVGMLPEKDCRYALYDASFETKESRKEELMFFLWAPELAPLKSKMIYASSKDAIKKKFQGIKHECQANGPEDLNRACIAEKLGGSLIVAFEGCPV
UniProt Q8NCM8: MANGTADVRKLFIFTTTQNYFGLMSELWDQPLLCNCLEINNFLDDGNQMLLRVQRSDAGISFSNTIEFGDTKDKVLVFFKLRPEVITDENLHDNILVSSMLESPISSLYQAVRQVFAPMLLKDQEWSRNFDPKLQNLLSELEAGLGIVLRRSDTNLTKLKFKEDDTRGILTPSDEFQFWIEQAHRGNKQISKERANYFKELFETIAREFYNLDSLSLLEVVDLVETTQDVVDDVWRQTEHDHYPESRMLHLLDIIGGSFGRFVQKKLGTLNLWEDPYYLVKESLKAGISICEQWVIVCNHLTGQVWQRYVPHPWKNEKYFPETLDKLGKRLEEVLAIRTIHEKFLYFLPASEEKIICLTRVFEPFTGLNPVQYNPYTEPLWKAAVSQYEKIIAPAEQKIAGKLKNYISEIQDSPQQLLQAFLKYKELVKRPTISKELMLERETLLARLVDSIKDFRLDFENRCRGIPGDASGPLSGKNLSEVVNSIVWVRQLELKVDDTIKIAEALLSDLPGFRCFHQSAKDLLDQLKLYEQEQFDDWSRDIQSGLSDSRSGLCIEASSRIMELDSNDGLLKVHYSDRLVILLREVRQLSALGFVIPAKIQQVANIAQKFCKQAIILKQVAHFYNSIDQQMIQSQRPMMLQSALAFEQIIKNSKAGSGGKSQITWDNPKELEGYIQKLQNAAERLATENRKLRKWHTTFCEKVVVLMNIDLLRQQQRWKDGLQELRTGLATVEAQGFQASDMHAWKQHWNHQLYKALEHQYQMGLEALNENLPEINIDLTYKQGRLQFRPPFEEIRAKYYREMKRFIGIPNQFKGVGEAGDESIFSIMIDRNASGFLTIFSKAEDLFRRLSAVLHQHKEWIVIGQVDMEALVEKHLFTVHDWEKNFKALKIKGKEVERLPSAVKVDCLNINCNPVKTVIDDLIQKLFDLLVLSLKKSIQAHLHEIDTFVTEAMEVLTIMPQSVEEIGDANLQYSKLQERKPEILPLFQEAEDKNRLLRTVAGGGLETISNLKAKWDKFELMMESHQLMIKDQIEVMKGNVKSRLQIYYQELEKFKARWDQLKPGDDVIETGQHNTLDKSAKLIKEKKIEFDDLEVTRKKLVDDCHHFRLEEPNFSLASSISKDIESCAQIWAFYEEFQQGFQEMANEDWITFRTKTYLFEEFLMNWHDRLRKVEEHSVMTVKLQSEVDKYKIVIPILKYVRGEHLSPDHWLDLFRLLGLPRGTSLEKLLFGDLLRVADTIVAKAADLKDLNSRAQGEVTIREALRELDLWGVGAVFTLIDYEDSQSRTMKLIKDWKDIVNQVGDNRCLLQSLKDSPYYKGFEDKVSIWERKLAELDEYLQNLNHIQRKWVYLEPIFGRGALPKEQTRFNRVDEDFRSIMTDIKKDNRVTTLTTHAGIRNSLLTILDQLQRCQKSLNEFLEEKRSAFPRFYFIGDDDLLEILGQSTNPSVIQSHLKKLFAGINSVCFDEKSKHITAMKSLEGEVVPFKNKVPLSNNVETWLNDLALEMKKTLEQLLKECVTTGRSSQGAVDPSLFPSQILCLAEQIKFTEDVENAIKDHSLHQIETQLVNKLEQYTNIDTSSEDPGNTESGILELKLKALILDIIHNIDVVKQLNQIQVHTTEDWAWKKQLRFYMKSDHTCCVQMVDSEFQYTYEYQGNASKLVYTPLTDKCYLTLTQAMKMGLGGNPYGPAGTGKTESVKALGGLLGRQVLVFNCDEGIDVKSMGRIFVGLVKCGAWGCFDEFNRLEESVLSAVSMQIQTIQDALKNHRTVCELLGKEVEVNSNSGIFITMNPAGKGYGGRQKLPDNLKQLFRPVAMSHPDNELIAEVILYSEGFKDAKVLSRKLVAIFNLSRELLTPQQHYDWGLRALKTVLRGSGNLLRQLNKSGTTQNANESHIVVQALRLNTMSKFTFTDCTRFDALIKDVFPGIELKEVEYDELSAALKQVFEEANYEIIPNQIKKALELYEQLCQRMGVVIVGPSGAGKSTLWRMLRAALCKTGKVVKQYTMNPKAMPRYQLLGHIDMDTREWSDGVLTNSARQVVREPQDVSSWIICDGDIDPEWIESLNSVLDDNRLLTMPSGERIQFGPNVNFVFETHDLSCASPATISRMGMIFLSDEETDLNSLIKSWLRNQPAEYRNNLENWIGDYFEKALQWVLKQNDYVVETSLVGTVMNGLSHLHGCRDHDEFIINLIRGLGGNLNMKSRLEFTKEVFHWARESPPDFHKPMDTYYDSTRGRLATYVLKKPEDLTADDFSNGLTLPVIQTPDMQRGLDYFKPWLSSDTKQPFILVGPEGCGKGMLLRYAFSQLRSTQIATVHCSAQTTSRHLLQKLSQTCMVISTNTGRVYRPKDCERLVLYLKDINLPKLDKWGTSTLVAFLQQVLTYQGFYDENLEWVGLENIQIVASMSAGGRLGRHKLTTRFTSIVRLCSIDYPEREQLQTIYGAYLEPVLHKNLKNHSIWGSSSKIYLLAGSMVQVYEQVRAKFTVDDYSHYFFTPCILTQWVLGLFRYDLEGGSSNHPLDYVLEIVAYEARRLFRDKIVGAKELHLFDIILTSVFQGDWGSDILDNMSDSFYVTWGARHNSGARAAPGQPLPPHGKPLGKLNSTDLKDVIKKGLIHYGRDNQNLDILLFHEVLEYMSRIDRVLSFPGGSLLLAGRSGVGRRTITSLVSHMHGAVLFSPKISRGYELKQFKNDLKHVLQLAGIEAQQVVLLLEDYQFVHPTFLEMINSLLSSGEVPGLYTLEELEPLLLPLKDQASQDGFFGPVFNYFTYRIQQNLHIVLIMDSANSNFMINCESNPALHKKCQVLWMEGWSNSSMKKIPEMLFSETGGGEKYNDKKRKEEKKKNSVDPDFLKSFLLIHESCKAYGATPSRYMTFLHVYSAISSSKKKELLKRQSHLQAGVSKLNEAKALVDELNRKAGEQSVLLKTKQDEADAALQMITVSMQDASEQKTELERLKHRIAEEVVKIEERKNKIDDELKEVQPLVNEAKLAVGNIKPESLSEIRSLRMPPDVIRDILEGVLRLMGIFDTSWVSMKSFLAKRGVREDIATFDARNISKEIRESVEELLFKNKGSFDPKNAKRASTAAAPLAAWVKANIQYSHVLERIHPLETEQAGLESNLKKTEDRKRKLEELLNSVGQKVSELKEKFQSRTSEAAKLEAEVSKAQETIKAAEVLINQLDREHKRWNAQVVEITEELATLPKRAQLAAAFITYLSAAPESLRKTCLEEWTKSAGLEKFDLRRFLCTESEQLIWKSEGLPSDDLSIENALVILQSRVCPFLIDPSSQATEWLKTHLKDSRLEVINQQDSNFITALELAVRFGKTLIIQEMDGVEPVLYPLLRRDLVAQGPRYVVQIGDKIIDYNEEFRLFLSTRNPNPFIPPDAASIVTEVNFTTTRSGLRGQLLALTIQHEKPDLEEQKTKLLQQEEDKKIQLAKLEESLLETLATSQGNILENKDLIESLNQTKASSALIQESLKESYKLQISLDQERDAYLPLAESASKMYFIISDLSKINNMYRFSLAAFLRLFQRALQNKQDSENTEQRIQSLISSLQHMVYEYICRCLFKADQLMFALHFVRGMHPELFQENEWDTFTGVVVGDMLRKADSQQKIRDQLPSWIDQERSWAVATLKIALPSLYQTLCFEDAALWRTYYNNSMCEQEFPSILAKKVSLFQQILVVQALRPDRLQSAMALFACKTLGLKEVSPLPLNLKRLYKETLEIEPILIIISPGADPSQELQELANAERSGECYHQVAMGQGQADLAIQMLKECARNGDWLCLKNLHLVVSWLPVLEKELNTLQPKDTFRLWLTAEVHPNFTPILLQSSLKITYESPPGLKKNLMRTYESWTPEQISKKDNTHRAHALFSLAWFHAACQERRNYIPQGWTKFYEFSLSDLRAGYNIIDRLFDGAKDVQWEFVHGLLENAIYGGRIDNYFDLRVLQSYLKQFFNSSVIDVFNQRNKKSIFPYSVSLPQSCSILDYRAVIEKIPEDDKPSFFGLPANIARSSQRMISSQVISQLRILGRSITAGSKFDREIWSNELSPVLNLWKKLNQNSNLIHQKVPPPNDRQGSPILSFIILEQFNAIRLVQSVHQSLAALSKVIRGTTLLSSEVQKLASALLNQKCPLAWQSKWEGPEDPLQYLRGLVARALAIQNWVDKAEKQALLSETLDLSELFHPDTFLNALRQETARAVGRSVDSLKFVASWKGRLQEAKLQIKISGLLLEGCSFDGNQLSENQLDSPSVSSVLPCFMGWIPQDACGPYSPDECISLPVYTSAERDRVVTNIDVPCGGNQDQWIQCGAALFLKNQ
UniProt P26641, 254-275: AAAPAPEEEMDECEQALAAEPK
UniProt Q15029: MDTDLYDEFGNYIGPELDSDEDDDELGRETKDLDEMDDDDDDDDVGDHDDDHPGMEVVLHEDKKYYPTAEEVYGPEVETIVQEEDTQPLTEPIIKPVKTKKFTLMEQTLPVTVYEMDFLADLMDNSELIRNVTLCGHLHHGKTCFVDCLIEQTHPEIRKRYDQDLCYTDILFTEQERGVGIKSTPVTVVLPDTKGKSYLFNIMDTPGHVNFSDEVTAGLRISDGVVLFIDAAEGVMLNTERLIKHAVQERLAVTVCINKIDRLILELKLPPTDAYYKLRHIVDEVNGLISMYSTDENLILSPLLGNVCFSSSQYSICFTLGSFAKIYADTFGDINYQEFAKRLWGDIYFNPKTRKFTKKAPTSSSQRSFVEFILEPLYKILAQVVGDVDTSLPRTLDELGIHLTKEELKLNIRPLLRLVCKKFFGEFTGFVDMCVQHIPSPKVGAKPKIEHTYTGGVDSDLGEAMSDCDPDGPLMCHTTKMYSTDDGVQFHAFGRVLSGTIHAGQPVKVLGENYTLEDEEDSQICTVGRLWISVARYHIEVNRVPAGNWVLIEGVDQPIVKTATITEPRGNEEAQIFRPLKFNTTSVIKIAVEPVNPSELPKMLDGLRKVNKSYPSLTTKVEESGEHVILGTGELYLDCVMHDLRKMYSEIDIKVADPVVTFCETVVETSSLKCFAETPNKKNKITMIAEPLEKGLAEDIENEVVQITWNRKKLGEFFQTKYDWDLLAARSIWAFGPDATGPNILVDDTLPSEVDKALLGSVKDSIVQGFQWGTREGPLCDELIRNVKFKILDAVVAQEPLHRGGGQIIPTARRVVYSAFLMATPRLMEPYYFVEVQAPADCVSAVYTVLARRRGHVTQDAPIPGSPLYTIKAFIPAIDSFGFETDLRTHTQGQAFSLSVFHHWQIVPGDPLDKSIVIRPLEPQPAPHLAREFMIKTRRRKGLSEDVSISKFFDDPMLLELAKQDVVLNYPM
UniProt O95905, 7-26: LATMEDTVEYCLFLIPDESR

Key:
[1] = compound: ClCC(=O)N[C@@H]1CCCc2ccccc12; assay: log2 mean competition ratio of IA-DTB cysteine labelling (DMSO/compound) (log2 ratio); higher = stronger cysteine engagement by compound; details: treatment time: 4 h, cell line lysate: HEK293T
Procedure: (§1)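 IA-DTB competitive cysteine chemoproteomics in HEK293T RIPA lysate. Lysates were treated with compound 29 or 30 at 50 or 200 µM for 4 h, then IA-DTB (500 µM, 1 h), trypsin-digested, NeutrAvidin-enriched and analysed by diaPASEF. Competition ratio = intensity DMSO / intensity compound (n=4 treated, n=64 DMSO); binding: mean log2 CR ≥ 1 and p ≤ 0.05 plus QC filters. Target is the cysteine site.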

[2] = compound: ClCC(=O)N[C@H]1CCCc2ccccc12; assay: as above; details: treatment time: 4 h, cell line lysate: HEK293T
Procedure: as §1

Target	log2 mean competition ratio ([1]; 50 µM)	log2 mean competition ratio ([1]; 200 µM)	log2 mean competition ratio ([2]; 50 µM)	log2 mean competition ratio ([2]; 200 µM)
DST C7524 (UniProt Q03001)	0.271	0.089	0.168	-0.283
DTX3 C272	0.218	-0.174	0.271	0.255
DSN1 C65 (UniProt Q9H410)	-0.0135	-0.185	0.0351	-0.0911
EGFL7 C117 (UniProt Q9UHF1)	0.0489	0.241	0.137	0.258
DSP C1805 (UniProt P15924)	0.147	-0.0105	0.0252	-0.0313
EIF2AK1 C267 (UniProt Q9BQI3)	-0.285	-0.289	0.19	-0.353
DYM C207 (UniProt Q7RTS9)	0.0113	0.147	-0.287	0.0659
DSP C57 (UniProt P15924)	-0.483	0.0598	-0.0647	0.000447
EIF2S1 C70 (UniProt P05198)	0.128	0.326	-0.455	0.151
DYNC1H1 C1999 (UniProt Q14204)	0.108	-0.0344	0.085	0.0071
EEA1 C346 (UniProt Q15075)	-0.214	0.167	-0.251	0.173
DTNB C248	0.24	0.192	-0.145	0.209
EIF2S3B C105	-0.0459	-0.0782	0.298	0.0874
EIF3I C144	-0.274	0.12	-0.198	0.188
EIF2B4 C69 (UniProt Q9UI10)	-0.186	-0.0945	-0.0318	-0.167
EEF2 C290 (UniProt P13639)	0.497	-0.205	0.0866	-0.14
EFCAB7 C174 (UniProt A8K855)	0.175	0.377	-0.346	0.1
EIF1AD C89 (UniProt Q8N9N8)	0.772	0.339	0.616	0.19
DSC2 C266 (UniProt Q02487)	-0.00956	0.622	-0.0256	-0.0699
EIF4G3 C982	0.214	0.147	0.223	0.103
EIF2B3 C379 (UniProt Q9NR50)	-0.0781	0.0224	0.123	-0.0529
DSP C1052 (UniProt P15924)	-0.0773	0.642	-0.124	0.179
EIF3M C175 (UniProt Q7L2H7)	-0.0427	-0.316	-0.0527	-0.166
DSTN C23 (UniProt P60981)	-0.0736	-0.309	0.0136	-0.324
DYNC2H1 C3778 (UniProt Q8NCM8)	0.165	0.0289	-0.311	0.21

Quoted from the listing.
Value of EIF1AD C89 (UniProt Q8N9N8) under log2 mean competition ratio ([2]; 50 µM): 0.616
Value of DTX3 C272 under log2 mean competition ratio ([2]; 200 µM): 0.255
Value of DSP C1805 (UniProt P15924) under log2 mean competition ratio ([1]; 200 µM): -0.0105
Value of DSTN C23 (UniProt P60981) under log2 mean competition ratio ([2]; 50 µM): 0.0136

Additional entries:

Target	log2 mean competition ratio ([1]; 50 µM)	log2 mean competition ratio ([1]; 200 µM)	log2 mean competition ratio ([2]; 50 µM)	log2 mean competition ratio ([2]; 200 µM)
EDRF1 C1019 (UniProt Q3B7T1)	0.00586	0.353	-0.0282	0.243
DYNC1H1 C867 (UniProt Q14204)	-0.0722	-0.142	0.0296	-0.192
EIF3K C87 (UniProt Q9UBQ5)	0.103	-0.1	-0.366	-0.208
DYNC2I1 C1047	0.00067	0.382	0.108	0.353
DTX3L C309 (UniProt Q8TDB6)	0.269	0.18	-0.136	0.466
DSP C768 (UniProt P15924)	-0.362	-0.482	-0.0628	-0.418
DYNC2H1 C2295 (UniProt Q8NCM8)	-0.23	0.355	-0.0277	0.208
DSP C798 (UniProt P15924)	-0.234	0.27	-0.487	-0.15
DYNC2H1 C1915 (UniProt Q8NCM8)	0.0515	-0.0729	0.0664	-0.14
DYRK1A C312 (UniProt Q13627)	-0.00488	0.337	0.125	0.396
EIF2B1 C115 (UniProt Q14232)	0.238	-0.0307	0.171	-0.294
EIF3B C527	-0.178	-0.371	0.339	-0.239
DYNC1H1 C2639 (UniProt Q14204)	0.0638	-0.00563	0.0211	-0.148
DTNA C197	-0.037	0.00926	0.166	0.173
EIF3C C443 (UniProt Q99613)	0.448	0.0888	-0.0496	0.0551
EED C126	-0.161	-0.172	-0.586	-0.218
EIF4G3 C461	-0.114	-0.233	0.181	-0.106
EEF1G C266 (UniProt P26641)	-0.461	-0.031	-0.0907	0.0402
EFL1 C402 (UniProt Q7Z2Z2)	0.0727	0.147	0.405	0.105
DTL C136 (UniProt Q9NZJ0)	-0.109	-0.248	0.488	-0.142
EARS2 C386 (UniProt Q5JPH6)	0.16	-0.517	0.0509	-0.125
EIF5B C853 (UniProt O60841)	-0.128	-0.153	-0.0942	-0.193
EHMT2 C754	-0.0633	0.0646	-0.25	-0.565
EIF5B C1126 (UniProt O60841)	-0.363	0.107	0.108	0.0463
DSTN C163 (UniProt P60981)	0.152	0.415	0.334	0.305

Target	log2 mean competition ratio ([1]; 50 µM)	log2 mean competition ratio ([1]; 200 µM)	log2 mean competition ratio ([2]; 50 µM)	log2 mean competition ratio ([2]; 200 µM)
ECPAS C1070 (UniProt Q5VYK3)	-0.119	-0.234	-0.139	-0.209
EHBP1 C849 (UniProt Q8NDI1)	0.475	-0.079	0.705	-0.0995
EFCAB7 C524 (UniProt A8K855)	-0.123	0.176	-0.213	0.00974
EBF3 C161	-0.0144	0.506	0.703	0.227
DYNC1LI2 C234 (UniProt O43237)	0.056	0.0201	-0.228	-0.0161
DYNC2H1 C3277 (UniProt Q8NCM8)	0.269	0.152	0.138	0.0825
EDC4 C510 (UniProt Q6P2E9)	0.289	-0.471	0.441	-0.486
DSP C135 (UniProt P15924)	-0.165	0.104	-0.0775	0.0945
E4F1 C361	-0.384	0.0879	-0.352	-0.165
EIF3D C404 (UniProt O15371)	-0.201	0.09	-0.348	0.0302
EFTUD2 C780 (UniProt Q15029)	0.114	0.249	-0.433	0.297
ECD C17 (UniProt O95905)	-0.694	-0.621	0.23	-0.481
EIF3C C480 (UniProt Q99613)	-0.208	-0.0138	-0.176	-0.337
EIF4E C170 (UniProt P06730)	-0.28	-0.255	0.107	0.0201
DYNC1H1 C633 (UniProt Q14204)	0.24	0.291	0.135	0.246
DSC2 C418 (UniProt Q02487)	0.0663	-0.436	-0.245	0.202
DST C5527 (UniProt Q03001)	0.109	-0.424	-0.229	-0.274
DST C3225 (UniProt Q03001)	-0.0388	-0.0996	-0.283	-0.0411
DUSP19 C150 (UniProt Q8WTR2)	-0.14	-0.133	0.0764	-0.262
EIF5 C59 (UniProt P55010)	0.117	-0.00642	0.357	-0.0969
EIF2S3 C105 (UniProt P41091)	-0.255	0.0439	0.322	0.0703
E2F7 C151	0.118	0.155	0.0314	0.129
DST C5394 (UniProt Q03001)	0.204	0.286	0.15	0.169
DSP C1069 (UniProt P15924)	0.183	0.246	-0.239	0.134
